Source: patent publication US6472541B2, “Protecting groups with increased photosensitivities” (The Regents of the University of California, priority 1998, dated 2002)

Assay: Glutamate released from compound 7 upon photolysis, quantified as fluorescamine derivative by HPLC
Type: physicochemical
Details: 100 μM 7, pH 7.2 KMOPS, 365 nm irradiation

O=C(O)CC[C@H](NC(=O)OCc1cc(=O)oc2cc(O)c(Br)cc12)C(=O)O [Compound 7, N-(6-Bromo-7-hydroxycoumarin-4-yl)methoxycarbonyl glutamate]
Yield of glutamate (30 seconds): 27.6% | Yield of glutamate (60 seconds): 52.7% | Yield of glutamate (90 seconds): 74.5% | Yield of glutamate (120 seconds): 98.7%
